In publication PMC9971600:
No constants are given. Whether binding was seen depends on the method and setting. Binding seen in cells or lysates may run through a third protein. Some binding calls cover weakened binding; strength is not graded here. Sequences can lack the tags named with a protein.

Protein sequences, listed by entry. Tags and fused reporters are not part of them.
UniProt O94901: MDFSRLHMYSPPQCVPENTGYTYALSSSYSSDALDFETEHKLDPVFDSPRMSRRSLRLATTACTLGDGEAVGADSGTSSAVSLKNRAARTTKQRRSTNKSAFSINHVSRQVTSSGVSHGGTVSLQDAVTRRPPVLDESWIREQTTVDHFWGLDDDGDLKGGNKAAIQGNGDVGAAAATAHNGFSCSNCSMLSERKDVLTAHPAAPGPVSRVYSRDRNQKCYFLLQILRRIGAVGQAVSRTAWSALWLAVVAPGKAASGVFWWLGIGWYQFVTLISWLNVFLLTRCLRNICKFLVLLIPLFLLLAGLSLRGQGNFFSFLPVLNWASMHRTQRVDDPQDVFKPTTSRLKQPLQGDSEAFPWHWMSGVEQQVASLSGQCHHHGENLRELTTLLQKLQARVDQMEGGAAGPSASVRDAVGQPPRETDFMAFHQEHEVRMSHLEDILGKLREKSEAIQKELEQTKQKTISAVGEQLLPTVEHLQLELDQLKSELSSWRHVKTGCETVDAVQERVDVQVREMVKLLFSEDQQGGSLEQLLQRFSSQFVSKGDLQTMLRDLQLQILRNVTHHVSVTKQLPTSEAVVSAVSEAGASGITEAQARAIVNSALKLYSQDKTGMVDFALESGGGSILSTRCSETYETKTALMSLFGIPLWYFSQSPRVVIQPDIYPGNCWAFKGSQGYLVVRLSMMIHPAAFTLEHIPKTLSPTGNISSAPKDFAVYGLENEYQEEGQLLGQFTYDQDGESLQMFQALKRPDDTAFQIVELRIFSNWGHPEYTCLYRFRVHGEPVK

Target: T1, FLAG-tagged wild-type KASH5 (human) (UniProt Q8N6L0)
T1 sequence: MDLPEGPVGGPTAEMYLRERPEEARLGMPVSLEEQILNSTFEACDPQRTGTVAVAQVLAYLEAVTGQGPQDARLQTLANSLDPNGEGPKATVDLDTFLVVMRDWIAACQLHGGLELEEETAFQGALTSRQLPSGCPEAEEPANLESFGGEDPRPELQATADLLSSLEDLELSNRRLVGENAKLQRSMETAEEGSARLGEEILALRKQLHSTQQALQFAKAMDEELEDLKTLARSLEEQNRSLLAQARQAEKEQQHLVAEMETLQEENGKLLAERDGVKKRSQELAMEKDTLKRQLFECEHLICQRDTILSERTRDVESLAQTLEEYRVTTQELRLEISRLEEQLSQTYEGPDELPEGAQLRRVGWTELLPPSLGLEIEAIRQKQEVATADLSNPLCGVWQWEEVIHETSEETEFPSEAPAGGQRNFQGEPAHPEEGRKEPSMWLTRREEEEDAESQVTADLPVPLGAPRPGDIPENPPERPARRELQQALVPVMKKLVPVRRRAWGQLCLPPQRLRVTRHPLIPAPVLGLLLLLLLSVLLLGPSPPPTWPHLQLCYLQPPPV
Experiment: co-IP; HEK293T cells co-transfected with GFP-SUN1 and FLAG-KASH5-WT or -MUT, 48 h; lysate in 50 mM Tris-HCl pH 7.5, 150 mM NaCl, 0.5% Triton X-100, 2.5 mM EDTA, 1 mM PMSF; anti-DYKDDDDK resin, 4°C, 8 h; six washes; blots with anti-GFP and anti-FLAG

binding: binds
Substance: GFP-tagged wild-type SUN1 (from UniProt O94901 1-785)
